The campaign covered roughly 340,000 compounds. About 170 (0.05%) were called active. This list was built around the results that the source calls inconclusive (neither active nor inactive); the mix of calls is not that of the screen. Calls follow the shape of the dose curve; as a rule, active = well fitted inhibition curve with a large enough effect in the signal ratio, with a control signal flat (not every such curve was filed as active); inconclusive = small, poorly fitted or top-dose-only effect, or effect the other way, or a change in a side signal; inactive = flat fitted curve, though single readings scatter; the % refers to the signal ratio. Potencies beside an inconclusive call are fits to weak or partial responses and may not hold up.
experiment: qHTS Assay to Find Inhibitors of Chronic Active B-Cell Receptor Signaling; details: ABC-DLBCL IkBa-CBG/CBR reporter, luminescence ratio (green luciferase fused to IkBa over red control in TMD8 lymphoma cells), 4 h; activity change, negative = inhibition: at 46.1 µM (top of the series);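 as to activity change, negative = inhibition: plate controls were basal doxycycline-induced cells for no effect and cells given 10 µM MG132 for full effect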
Outline: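 Cell line TMD8 (human ABC DLBCL), stably expressing tet-inducible CBG68-IkBa fusion and CBR; IMDM/0.5% FBS; cpd up to 46 uM; dox induction, 4 h, 37C/5% CO2; dual luminescence; green/red ratio; MG132 control.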
Potency is read from the fitted curve at half-maximal effect.

Structure (SMILES)	activity change, negative = inhibition	Potency
CC(=O)Nc1ccc(S(=O)(=O)Nc2nc3n(n2)C(c2ccccc2)CC(=O)N3)cc1 (stereo not given)	inconclusive: 25.2%	
O=C(CSCc1ccc(Cl)cc1Cl)Nc1ccc(O)cc1C(=O)O		inconclusive: 17.8 µM [falling, partial curve, poor fit]
COCCn1c(=S)[nH]c2cc(C(=O)N(CCO)Cc3ccccc3)ccc2c1=O	inconclusive: 5.85%	
COc1c2n(C)ccc3c-2n(c(=O)c1=O)c1ccccc31	inconclusive: 11.4%	
CCCCCCCCOC(=O)C(NC(=O)CCC(=O)Nc1ccc(S(N)(=O)=O)cc1)C(O)c1ccccc1 (stereo not given)	inconclusive: -2.34%	
O=C(Nc1ccccc1C(=O)N1CCOCC1)c1cccnc1	inconclusive: 4.98%	
COc1ccc(C(=O)NCCc2ccccn2)cc1S(=O)(=O)Nc1ccc(Br)cc1	inconclusive: 6.56%	
O=C(NCCCO)c1ccc(CSc2nc3ccccc3c(=O)[nH]2)cc1	inconclusive: -9.74%	
C/C(=N\NS(=O)(=O)c1ccc(C)cc1)c1ccc(C)o1	inconclusive: 6.15%	
CC(=O)Nc1nc(C)c(-c2csc(Nc3cccc([N+](=O)[O-])c3)n2)s1		inconclusive: 0.92 µM [falling, full curve, poor fit]
O=C(NCc1ccccc1F)C(=O)NCC(c1ccco1)S(=O)(=O)c1ccccc1 (stereo not given)	inconclusive: 2.06%	
N#Cc1ccsc1NC(=O)CCN1CCN(C(c2ccccc2)c2ccccc2)CC1	inconclusive: -5.99%	
COC(=O)c1cc(OC)c(OC)cc1NC(=O)Nc1ccccc1F		inconclusive: 10 µM [falling, partial curve, poor fit]
Oc1[nH]c2ccccc2c1N=Nc1cccc(Cl)c1		inconclusive: 4.47 µM [falling, full curve]
Cc1ccc(C(=O)OCC(=O)Nc2ncc(Cl)cc2Cl)cc1NC(=O)c1ccco1	inconclusive: 3.4%	
CCOc1ccc(NC(=S)NCc2ccc3[nH]c(C)cc3c2)cc1	inactive	
Cc1c(Cc2ccccc2)sc(NC(=O)C(C)(C)C)c1C(N)=O	inconclusive: 2.7%	
CC(Sc1ncnc2ccccc12)C(=O)Nc1ccc2c(c1)OCCO2 (stereo not given)	inconclusive: -16.4%	
S=c1[nH]nc(-c2cc(-c3ccccc3)n[nH]2)n1/N=C/c1cccc(Cl)c1	inactive	
N/C(=N\OC(=O)c1cccc(F)c1)c1cccc([N+](=O)[O-])c1	inconclusive: 8.51%	
O=[N+]([O-])c1ccc(S(=O)(=O)c2ccccc2)nc1	inconclusive: -6.11%	
CCOc1ccc2[nH]c(=O)c(CN(CCN3CCCC3)C(=S)Nc3ccccc3OCC)cc2c1		inconclusive: 22.4 µM [falling, single point]
Cc1ccc(Cn2c(=N)c(C(=O)NCc3ccco3)cc3c(=O)n4ccccc4nc32)cc1		inconclusive: 18.4 µM [rising, partial curve, poor fit]
CC1CCCC/C1=N\NS(=O)(=O)c1ccc(Br)cc1 (stereo not given)	inactive	
O=C(Nc1ccccc1C(=O)O)c1ncn[nH]1	inconclusive: -5.98%	

Structure (SMILES)	activity change, negative = inhibition	Potency
COC(=O)c1sccc1NC(=O)c1ccccc1[N+](=O)[O-]	inconclusive: -7.55%	
Cc1cccc(NC(=O)CN2CCN(CC(=O)Nc3ccc(-c4ccccc4)cc3)CC2)c1C	inconclusive: -7.34%	
CCn1nc(C)c(CN2CCCCC2C(=O)Nc2ccc(Oc3cccnc3)cc2)c1C (stereo not given)		inconclusive: 6.31 µM [falling, partial curve, poor fit]
Cc1nc(-c2cccs2)sc1C(=O)NN	inconclusive: 27.3%	
CCOC(=O)c1ccc(NC(=S)Nc2ccccc2)cc1	inconclusive: -2.57%	
CC(=O)c1c(C)[nH]c(C(=O)OCc2ccc(Br)cc2)c1C	inconclusive: 5.33%	
Cc1cc(/C=N/NC(=O)c2ccsc2)c(C)n1-c1cnccn1		inconclusive: 35.5 µM [falling, single point]
COc1ccccc1N1C(=O)C2C(C(=O)c3ccccc3)=NN(c3ccc(Br)cc3)C2C1=O (stereo not given)	inconclusive: 7.69%	
COc1ccc(NS(=O)(=O)c2cc(-c3cnc(C4CC4)o3)ccc2C)cc1		active: 12.6 µM
Cc1ccc(CNC(=O)CCCOc2cc(=O)n(C)c3ccccc23)o1		inconclusive: 11.6 µM [falling, partial curve, poor fit]
Cc1ccccc1N(C)C(=O)C1CCCN(c2ncnc3c2nc2n3CCCCC2)C1 (stereo not given)	inconclusive: 2.81%	
O=C(c1ccc(Cl)cc1)N1CCN(S(=O)(=O)/C=C/c2ccccc2)CC1	inconclusive: -1.08%	
O=C(c1ccc(Cl)c([N+](=O)[O-])c1)N(Cc1ccc(Cl)cc1)C1CCS(=O)(=O)C1 (stereo not given)	inconclusive: -0.328%	
Cc1cccc(N2C(=O)SC(N(CC(=O)O)c3cccc(C)c3)C2=O)c1 (stereo not given)		inconclusive: 12.6 µM [falling, single point]
O=C(CCc1ccccc1)Nc1ccccc1C(F)(F)F		inconclusive: 12.6 µM [falling, partial curve, poor fit]
CCc1nc(SCC(=O)NNC(=O)c2ccc(C)cc2)c2ccccc2n1		inconclusive: 11.2 µM [falling, partial curve]
O=C(OCC(O)C(O)COC(=O)c1ccccc1)c1ccccc1 (stereo not given)	inconclusive: -21.3%	
COc1ccc(C2NC(=S)NC(C)=C2C(=O)Nc2ccccn2)cc1OC (stereo not given)	inconclusive: -0.519%	
COc1ccc(CCNC(=O)C2CCC(=O)N2Cc2ccccc2Cl)cc1OC (stereo not given)	inconclusive: -2.28%	
O=C(N/N=C\c1cccnc1)c1ccccc1O		inconclusive: 35.5 µM [rising, single point]
COc1cccc2cc(C(=O)NCc3ccco3)c(=O)oc12	inconclusive: -9.07%	
CCCc1ccc2oc(C(=O)NCCc3nc(C(=O)OCC)cs3)c(C)c2c1		inconclusive: 35.5 µM [falling, single point]
Cc1cccc(CCNc2nc3ccccc3n3nnnc23)c1		inconclusive: 17.8 µM [falling, partial curve]
CC(=O)N1CCc2c(sc(NC(=O)CSc3ccc(C)cc3)c2-c2nc3ccccc3s2)C1		inconclusive: 0.708 µM [falling, partial curve, poor fit]
CCN(c1ccccc1)S(=O)(=O)c1ccc(OC)c(NC(=O)Cc2ccccc2OC)c1	inactive	

Random excerpt: five records from the list.
Structure (SMILES)	activity change, negative = inhibition	Potency
O=C(CCc1ccccc1)Nc1ccccc1C(F)(F)F		inconclusive: 12.6 µM [falling, partial curve, poor fit]
CCn1nc(C)c(CN2CCCCC2C(=O)Nc2ccc(Oc3cccnc3)cc2)c1C (stereo not given)		inconclusive: 6.31 µM [falling, partial curve, poor fit]
O=C(c1ccc(Cl)c([N+](=O)[O-])c1)N(Cc1ccc(Cl)cc1)C1CCS(=O)(=O)C1 (stereo not given)	inconclusive: -0.328%	
Cc1cccc(CCNc2nc3ccccc3n3nnnc23)c1		inconclusive: 17.8 µM [falling, partial curve]
Cc1ccc(CNC(=O)CCCOc2cc(=O)n(C)c3ccccc23)o1		inconclusive: 11.6 µM [falling, partial curve, poor fit]

Next entries

Structure (SMILES)	activity change, negative = inhibition	Potency
N#CCOc1nc(N2CCCCC2)nc(N2CCCCC2)n1		inconclusive: 20 µM [falling, single point]
COC(=O)C1=C(C)NC2=C(C(=O)c3ccccc32)C1c1ccc(-c2ccc(C(=O)O)cc2)o1 (stereo not given)		inconclusive: 13 µM [falling, single point]
Nc1c(C(=O)Nc2ccccc2F)sc2nc(Cc3ccccc3)cc(C(F)(F)F)c12	inconclusive: 16%	
O=C1C=C(c2cccc(Br)c2)C[C@@H](c2ccc3c(c2)OCO3)C1	inactive	
Nc1nonc1-n1nnc(C(=O)N/N=C/c2ccc3c(c2)OCO3)c1-c1ccccc1	inactive	
CC(C)OCCCNc1ncnc2c1cnn2-c1ccccc1		inconclusive: 1.78 µM [rising, full curve]
S=C(Nc1ccccc1Cl)N1CCOCC1	inactive	
O=C1CN(C(=O)COC(=O)c2ccc(C(F)(F)F)cc2)c2ccccc2N1	inconclusive: 4.93%	
COc1ccc(/C=N/NC(=O)CCSc2nc3ccccc3s2)cc1		inconclusive: 2.91 µM [falling, partial curve, poor fit]
Cc1ccc(C(=O)ONC(=O)c2ccc(Cl)cc2)cc1[N+](=O)[O-]	inconclusive: 15.1%	
O=C1OCCN1C(=O)[C@H]1[C@H](c2ccc(Cl)cc2)C(c2ccccc2)=NN1c1ccc(Br)cc1	inconclusive: 8.94%	
COc1ccc(CC(=O)Nc2cccc3ccccc23)cc1OC		inconclusive: 11.2 µM [falling, partial curve]
Nc1c(C(=O)NCc2ccco2)nnn1-c1ccccc1		inconclusive: 22.4 µM [falling, partial curve]
CCCCc1ccc(S(N)(=O)=O)cc1		inconclusive: 20 µM [rising, partial curve, poor fit]
Cn1cc(Br)c(C(=O)Nc2sc3c(c2C(N)=O)CCC3)n1		inconclusive: 20.6 µM [cytotoxic, single point]
Cc1cccc(-n2cc(CN3CCCN(C=O)CC3)c(-c3cccc(F)c3)n2)c1	inconclusive: 10.9%	
Cc1cccc(NC(=O)/C(C#N)=C/c2cccc([N+](=O)[O-])c2)n1	inconclusive: 7.26%	
Cc1nc2ccccc2n1CC(=O)OCC(=O)NC1CC1	inactive	
Cc1nnc(N2CCC(C(=O)NCc3cccc(Cl)c3)CC2)c2nn(-c3ccccc3)c(C)c12	inactive	
CCOc1cc(/C=N/NC(=O)c2cc(C3CC3)[nH]n2)ccc1O		inconclusive: 11.2 µM [falling, partial curve, poor fit]
CC(C)c1ccc(NC(=O)CSC2=Nc3ccccc3C3=NC(CC(=O)NCc4ccco4)C(=O)N23)cc1 (stereo not given)		inconclusive: 14.1 µM [rising, partial curve, poor fit]
O=C(c1ccc2ccccc2n1)N1CCN(c2ccccc2)CC1	inconclusive: 10.9%	
COCC1CCCN(C(=O)c2cc(COc3cccc4cccnc34)on2)C1 (stereo not given)	inactive	
COc1ccccc1-c1cc2nc(C)c(CCC(=O)NC(C)CCc3ccco3)c(C)n2n1 (stereo not given)		inconclusive: 1.46 µM [falling, full curve]
O=C(Nc1cccc(Cl)c1)C1=Cc2cc(Cl)ccc2OC1	inconclusive: 23%	

Source: PubChem BioAssay AID493014 (National Center for Advancing Translational Sciences (NCATS), 2011)
